“And” between values parts separate entries of the source, which are not always exact repeats. Equal entries are not always repeated. This is one part of the list. The main result of the screen is listed elsewhere. These columns were measured beside it and carry no call. Most of these compounds were active or inconclusive in the main read-out, so they are no random draw. The note in brackets gives the kind of curve behind each potency; many fits are weak.
Assay: qHTS Assay for Lipid Storage Modulators in Drosophila S3 Cells;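 on cell number change: cells counted by Cell Tracker Red CMTPX staining in the red channel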
Details: BODIPY lipid droplet fluorescence, 18-24 h; for cell number change: measured here: cell count max response, cells fed with added oleic acid
Summary of the method: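 Laser-scanning cytometry quantifies lipid droplet accumulation (500–530 nm total intensity; droplet/cell object ratio) in oleic acid-fed (400 uM added) Drosophila S3 cells treated with a concentration series. 20 uM Triacsin C defined 100% inhibition.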

[1] = measured here: lipid fluorescence (Fed channel) AC50, cells fed with added oleic acid
[2] = measured here: cell number channel AC50, cells fed with added oleic acid

Structure (SMILES)	cell number change	AC50 [1]	AC50 [2]
COc1ccc(C(=O)N2CCCC(c3nc(-c4ccc(OC)c(OC)c4)no3)C2)c(OC)c1 (centres undefined)	-6.89%	–	–
CN(Cc1ccccc1)C(=S)NC(=O)c1cccs1	-10.4%	0.651 µM [falling, partial curve, poor fit]	–
CCN1C(=O)[C@H]2[C@@H](c3ccc(-c4ccc(OC)cc4)cc3)N[C@@](C)(C(=O)OC)[C@H]2C1=O	14.3%	–	–
Cc1ccc(C(C(=O)Nc2ccc(C(C)C)cc2)N(C)C(=O)c2ccc(=O)[nH]c2)cc1 (centres undefined)	-3.37%	0.00517 µM [falling, full curve, poor fit]	–
CCOc1ccc(/C=C2/Sc3ccc(C(=O)N4CCOCC4)cc3N(C)C2=O)cc1OC	–	29.1 µM [falling, single point]	–
COc1ccc(C)cc1N(C(=O)c1snc(C(N)=O)c1N)C(C(=O)NC1CCCC1)c1ccc(F)cc1 (centres undefined)	8.7%	–	–
COc1ccc(C(=O)Nc2cccnc2)cc1S(=O)(=O)N1CCOCC1	-17%	–	–
CS(=O)(=O)N(CC(=O)Nc1ccc(Br)cc1)C1CCCCC1	-24%	0.92 µM [falling, partial curve]	–
COc1ccc(N2CCN(CC(O)COc3ccc([N+](=O)[O-])cc3)CC2)cc1 (centres undefined)	0.746%	2.59 µM [rising, single point]	–
CC1(c2nnc(-c3ccccc3)o2)CC(c2ccncc2)=NO1 (centres undefined)	18.6%	8.2 µM [rising, single point]	–
O=C(c1cc(-c2ccco2)on1)N1CCCc2ccccc21	18.5%	2.31 µM [rising, partial curve]	–
O=c1cc(-c2ccccc2)nc2nc(-c3ccccc3)[nH]n12	-51.1%	0.651 µM [falling, single point]	25.9 µM [falling, single point]
CN(C)C(=O)COC(=O)c1ccccc1Nc1ccc(SC(F)F)cc1	-29%	–	–
O=S(=O)(c1ccc(Br)s1)N1CCN(CCOc2ccccc2)CC1	5.76%	0.00517 µM [rising, full curve]	–
CNC(=O)/C(C#N)=C/c1c(N(Cc2ccccc2)Cc2ccccc2)nc2c(C)cccn2c1=O	-18.6%	29.1 µM [falling, single point]	–
CCCn1c(/N=C/c2ccc3c(c2)OCO3)nc2ccccc21	-4.45%	–	–
COCC(=O)N(C)C1(c2nnnn2CCOC(=O)Nc2ccc(Cl)cc2)CCCCC1	51.7%	–	–
COc1cccc(CCC(=O)N(C)C2CCCN(Cc3ccccc3F)C2)c1 (centres undefined)	-14.3%	4.11 µM [falling, single point]	–
CC(NC(=O)c1cc(S(=O)(=O)N(C)C)ccc1N1CCCC1)C1CC2CCC1C2 (centres undefined)	15.7%	–	–
CCOC(=O)c1cnc2c(C#N)cnn2c1N	-10.3%	6.51 µM [rising, single point]	–
O=C1C2ON(c3ccccc3)C(c3ccncc3)C2C(=O)N1c1ccc(N2CCOCC2)cc1 (centres undefined)	-32.8%	29.1 µM [falling, single point]	9.2 µM [falling, partial curve, poor fit]

Individual results from above:
`CCOC(=O)c1cnc2c(C#N)cnn2c1N` | cell number change: -10.3%
`O=S(=O)(c1ccc(Br)s1)N1CCN(CCOc2ccccc2)CC1` | cell number change: 5.76%
`COc1ccc(C)cc1N(C(=O)c1snc(C(N)=O)c1N)C(C(=O)NC1CCCC1)c1ccc(F)cc1` (centres undefined) | cell number change: 8.7%

Additional records.

Structure (SMILES)	cell number change	AC50 [1]	AC50 [2]
Cc1cc(C)nc(SCc2ccc(C(=O)N/N=C/c3cccnc3)cc2)n1	-8.2%	6.51 µM [rising, partial curve, poor fit]	0.058 µM [rising, full curve, poor fit]
CN(C)S(=O)(=O)c1ccc(C(=O)Nc2nnc(-c3ccco3)o2)cc1	3.82%	6.51 µM [falling, single point]	–
CCc1cc(Cn2nc(C(=O)O)cc2-c2ccccc2)on1	-15.3%	6.51 µM [rising, single point]	–
COc1cc(NC(=S)N2CCN(C(c3ccccc3)c3ccccc3)CC2)cc(OC)c1	–	–	0.092 µM [rising, full curve, poor fit]
C/C(=N\Nc1ccccn1)c1ccc(S(=O)(=O)NCc2ccco2)cc1	-5.05%	0.731 µM [falling, partial curve, poor fit]	–
O=C1Cc2ccccc2C(=O)N1c1ccc(F)cc1Cl	29.3%	29.1 µM [falling, single point]	–
COc1cccc(OC)c1C(=O)Nc1c(C)n(C)n(-c2ccccc2)c1=O	-60.7%	–	29.1 µM [falling, single point]
CC(C)(C)c1ccc(S(=O)(=O)N2CCC(N3CCCCC3)CC2)cc1	26.1%	29.1 µM [rising, single point]	–
O=C1OC(=O)C2C1[C@@H]1CC[C@H]2O1 (some centres undefined)	-0.902%	0.517 µM [falling, full curve, poor fit]	–
CCN(CC)C(=O)CSc1nc2cc(OC)c(OC)cc2c(=O)n1Cc1ccc(Cl)cc1	2.7%	2.06 µM [falling, partial curve]	–
CCOC(=O)c1cnc(SCC)[nH]c1=O	1.29% and -24.5%	6.51 µM [falling, single point] and 4.11 µM [falling, partial curve, poor fit]	1.16 µM [falling, full curve, poor fit]
CC(C)c1nc2sc3c(SCC(=O)NCc4ccco4)ncnc3c2c2c1CCC2	32.2%	4.11 µM [rising, single point]	6.51 µM [rising, full curve, poor fit]
Cc1cc(Cl)c2ccccc2n1	61.3%	1.84 µM [rising, partial curve, poor fit]	3.66 µM [falling, partial curve]
NNC(=O)c1oc2ccccc2c1-n1cccc1	3.19%	–	–
O=C1C=C(Nc2ccc(F)cc2)c2ccccc2C1=O	-10.5%	29.1 µM [falling, partial curve, poor fit]	–
C=CCn1c(C)nnc1SCC(=O)Nc1nccs1	-11%	–	–
N#CC(C#N)=Cc1cccn1-c1ccc(S(N)(=O)=O)cc1	60.4%	23.1 µM [rising, partial curve, poor fit]	6.51 µM [rising, partial curve]
CC(NC(=O)c1ccccc1)C(=O)NC1CCCc2ccccc21 (centres undefined)	6.5%	–	–
CCOc1ccc(S(=O)(=O)N2CCN(C(=O)c3oc4ccc(OC)cc4c3C)CC2)cc1	-31.9%	–	32.6 µM [falling, single point]
CCc1ccc(-c2nc(CS(=O)CC(=O)NCc3ccc4c(c3)OCO4)c(C)o2)cc1 (centres undefined)	0.57%	10.3 µM [rising, partial curve]	–
CCc1ccc(N(C)S(=O)(=O)c2ccc3[nH]cc(C(=O)NCCN4CCOCC4)c(=O)c3c2)cc1	-58.1%	2.91 µM [falling, partial curve]	32.6 µM [falling, single point]

Structure (SMILES)	cell number change	AC50 [1]	AC50 [2]
COc1ccc(CC(=O)Nc2nc3ccc(F)cc3s2)cc1S(=O)(=O)N1CCOCC1	–	6.51 µM [rising, single point]	6.51 µM [rising, single point]
CCOC(=O)Cn1c(=NC(=O)c2ccc([N+](=O)[O-])s2)sc2ccccc21	1.99%	–	–
COc1ccccc1-c1nnc(SCC(=O)Nc2ccccc2)o1	64.2%	4.11 µM [rising, full curve]	4.61 µM [rising, full curve]
COC(=O)CN1C(=O)N/C(=C/c2ccc(OC)c(C)c2OC)C1=O	-8.61%	–	–
COc1ccc(-n2c(SCC(=O)Nc3ccc(NC(C)=O)cc3)nc3ccccc3c2=O)cc1	-3.89%	0.146 µM [rising, full curve, poor fit]	–
CC(=O)N(Cc1ccccc1)Cc1nc2sc(C)c(C)c2c(=O)[nH]1	12%	1.03 µM [falling, partial curve]	–
O=C(c1ccco1)N1CCN(CC(=O)N(C2CCCCC2)C2CCS(=O)(=O)C2)CC1 (centres undefined)	-16%	29.1 µM [falling, single point]	–
NS(=O)(=O)c1ccc(NC(=O)/C=C/c2ccc3c(c2)OCO3)cc1	15.7%	–	6.51 µM [rising, single point]
Cc1ccc(S(=O)(=O)N2CCN(C(=S)NCCc3ccccc3)CC2)cc1	52.5%	–	6.51 µM [rising, partial curve]
COc1ccc(OCc2nnc(SCC(=O)Nc3cccc(Cl)c3)o2)cc1	25.6%	–	–
CC1CN(S(=O)(=O)c2cccc(C(=O)OC(C)C(=O)NC3CCCCC3C)c2)CC(C)O1 (centres undefined)	25.4%	3.26 µM [rising, partial curve]	–
Cc1ccc(/C=N/Nc2ncc(Cl)cc2Cl)s1	16.7%	6.51 µM [rising, single point]	–
Cc1ccc(S(=O)(=O)N2CCOCC2)cc1C(=O)OC(C)C(=O)c1ccccc1 (centres undefined)	98%	–	11.6 µM [rising, partial curve]
COc1cc(C2N=C(c3ccccc3)NO2)cc(Br)c1O (centres undefined)	–	0.58 µM [falling, single point]	–
COC(=O)/C(=C\C=C\c1ccccc1)NC(=O)c1ccccc1	-10.1%	–	–
O=C(O)CSc1nnc(COc2ccc([N+](=O)[O-])cc2)n1-c1ccccc1	-51%	23.1 µM [falling, partial curve, poor fit]	1.3 µM [falling, full curve]
CCCCn1nnnc1NCc1cccs1	-46.6%	–	1.16 µM [falling, partial curve, poor fit]
C=CCn1c(SCC(=O)Nc2ccccc2OC)nc2c([nH]c3ccccc32)c1=O	22.3%	–	0.0103 µM [rising, full curve, poor fit]
O=C(O)c1ccc2c(c1)C(=O)N(c1ccc(Nc3ccccc3)cc1)C2=O	14.2%	1.16 µM [rising, full curve, poor fit]	–

From PubChem BioAssay AID2685 (National Center for Advancing Translational Sciences (NCATS), 2010)
